Some of the results follow.
The targets below were run with C#Cc1cccc(Nc2ncnc3cc(OCCOC)c(OCCOC)cc23)c1 [erlotinib] (assay: log2 fold change, soluble protein after heating vs DMSO (PISA); higher = thermal stabilisation; K562 lysate, 10 uM; active = over 0.2 and 3.5 SD of the protein, either way, in both replicates (recomputed)).
Procedure, shortened: (§1)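 Values give the log-two fold change in thermal stability against solvent controls, from duplicates. Crude K562 extract at 1 mg/mL protein, made by dounce homogenisation in PBS pH 7.4 with 1 mM MgCl2, was treated with 10 μM compound for 30 min. After 3 min heating across 48°C-58°C, aliquots were pooled, adjusted to 0.5% NP-40 at 4°C and centrifuged at 21,000xg for 90 min. The supernatant was measured by TMTpro 16plex LC-MS/MS with channel sums equalised.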

Sequences of proteins named here, by UniProt entry; tags and fusion partners are left off. A change or cut given only in a name is not applied to a line headed by its entry.
UniProt Q9BT30: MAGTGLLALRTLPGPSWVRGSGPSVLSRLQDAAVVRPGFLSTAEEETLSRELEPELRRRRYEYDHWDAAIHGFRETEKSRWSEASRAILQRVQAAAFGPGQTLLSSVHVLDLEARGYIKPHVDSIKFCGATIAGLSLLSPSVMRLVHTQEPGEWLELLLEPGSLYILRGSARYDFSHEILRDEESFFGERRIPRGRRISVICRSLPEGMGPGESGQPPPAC
UniProt P30838: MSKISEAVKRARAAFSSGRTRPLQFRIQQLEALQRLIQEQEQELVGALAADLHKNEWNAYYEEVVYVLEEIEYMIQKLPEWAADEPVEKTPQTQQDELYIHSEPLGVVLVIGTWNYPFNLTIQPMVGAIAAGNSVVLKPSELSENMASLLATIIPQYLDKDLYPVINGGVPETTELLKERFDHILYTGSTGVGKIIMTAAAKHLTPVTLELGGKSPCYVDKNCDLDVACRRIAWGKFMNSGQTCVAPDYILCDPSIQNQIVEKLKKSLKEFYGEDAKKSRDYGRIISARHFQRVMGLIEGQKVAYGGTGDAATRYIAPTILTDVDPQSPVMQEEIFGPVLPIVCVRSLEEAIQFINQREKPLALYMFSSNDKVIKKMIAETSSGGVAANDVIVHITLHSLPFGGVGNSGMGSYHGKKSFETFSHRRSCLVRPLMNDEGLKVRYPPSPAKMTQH
UniProt Q68DC2: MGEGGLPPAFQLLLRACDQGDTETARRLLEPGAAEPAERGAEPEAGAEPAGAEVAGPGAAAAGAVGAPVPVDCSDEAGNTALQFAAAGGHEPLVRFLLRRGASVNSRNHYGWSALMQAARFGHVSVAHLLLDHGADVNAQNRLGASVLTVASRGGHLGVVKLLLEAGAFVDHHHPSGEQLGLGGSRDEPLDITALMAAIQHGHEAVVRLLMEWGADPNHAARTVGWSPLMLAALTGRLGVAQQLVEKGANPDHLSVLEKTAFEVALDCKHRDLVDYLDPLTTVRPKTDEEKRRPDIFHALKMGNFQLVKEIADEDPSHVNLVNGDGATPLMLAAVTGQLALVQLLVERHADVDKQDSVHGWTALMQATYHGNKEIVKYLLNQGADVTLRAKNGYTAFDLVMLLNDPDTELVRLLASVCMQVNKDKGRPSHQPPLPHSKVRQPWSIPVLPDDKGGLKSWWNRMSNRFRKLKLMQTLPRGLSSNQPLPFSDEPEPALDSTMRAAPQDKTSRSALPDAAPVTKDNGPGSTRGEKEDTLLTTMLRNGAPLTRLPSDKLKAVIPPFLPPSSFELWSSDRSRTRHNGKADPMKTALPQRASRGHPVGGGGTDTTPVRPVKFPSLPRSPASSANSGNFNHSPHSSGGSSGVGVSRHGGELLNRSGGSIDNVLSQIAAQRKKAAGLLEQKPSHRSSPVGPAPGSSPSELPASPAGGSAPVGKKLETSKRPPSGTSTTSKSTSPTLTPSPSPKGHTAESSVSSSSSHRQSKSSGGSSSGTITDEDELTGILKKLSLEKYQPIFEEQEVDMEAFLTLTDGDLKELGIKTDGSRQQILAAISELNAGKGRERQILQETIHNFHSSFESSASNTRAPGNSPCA
UniProt Q9H8T0: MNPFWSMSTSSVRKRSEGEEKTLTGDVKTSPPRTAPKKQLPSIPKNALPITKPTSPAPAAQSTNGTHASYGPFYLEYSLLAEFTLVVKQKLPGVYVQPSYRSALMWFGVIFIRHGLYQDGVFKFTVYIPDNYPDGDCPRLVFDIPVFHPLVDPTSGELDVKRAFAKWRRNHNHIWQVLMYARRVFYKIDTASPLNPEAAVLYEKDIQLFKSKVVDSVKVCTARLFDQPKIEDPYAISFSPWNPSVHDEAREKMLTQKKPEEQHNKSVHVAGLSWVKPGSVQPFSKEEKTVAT
UniProt Q9ULJ7: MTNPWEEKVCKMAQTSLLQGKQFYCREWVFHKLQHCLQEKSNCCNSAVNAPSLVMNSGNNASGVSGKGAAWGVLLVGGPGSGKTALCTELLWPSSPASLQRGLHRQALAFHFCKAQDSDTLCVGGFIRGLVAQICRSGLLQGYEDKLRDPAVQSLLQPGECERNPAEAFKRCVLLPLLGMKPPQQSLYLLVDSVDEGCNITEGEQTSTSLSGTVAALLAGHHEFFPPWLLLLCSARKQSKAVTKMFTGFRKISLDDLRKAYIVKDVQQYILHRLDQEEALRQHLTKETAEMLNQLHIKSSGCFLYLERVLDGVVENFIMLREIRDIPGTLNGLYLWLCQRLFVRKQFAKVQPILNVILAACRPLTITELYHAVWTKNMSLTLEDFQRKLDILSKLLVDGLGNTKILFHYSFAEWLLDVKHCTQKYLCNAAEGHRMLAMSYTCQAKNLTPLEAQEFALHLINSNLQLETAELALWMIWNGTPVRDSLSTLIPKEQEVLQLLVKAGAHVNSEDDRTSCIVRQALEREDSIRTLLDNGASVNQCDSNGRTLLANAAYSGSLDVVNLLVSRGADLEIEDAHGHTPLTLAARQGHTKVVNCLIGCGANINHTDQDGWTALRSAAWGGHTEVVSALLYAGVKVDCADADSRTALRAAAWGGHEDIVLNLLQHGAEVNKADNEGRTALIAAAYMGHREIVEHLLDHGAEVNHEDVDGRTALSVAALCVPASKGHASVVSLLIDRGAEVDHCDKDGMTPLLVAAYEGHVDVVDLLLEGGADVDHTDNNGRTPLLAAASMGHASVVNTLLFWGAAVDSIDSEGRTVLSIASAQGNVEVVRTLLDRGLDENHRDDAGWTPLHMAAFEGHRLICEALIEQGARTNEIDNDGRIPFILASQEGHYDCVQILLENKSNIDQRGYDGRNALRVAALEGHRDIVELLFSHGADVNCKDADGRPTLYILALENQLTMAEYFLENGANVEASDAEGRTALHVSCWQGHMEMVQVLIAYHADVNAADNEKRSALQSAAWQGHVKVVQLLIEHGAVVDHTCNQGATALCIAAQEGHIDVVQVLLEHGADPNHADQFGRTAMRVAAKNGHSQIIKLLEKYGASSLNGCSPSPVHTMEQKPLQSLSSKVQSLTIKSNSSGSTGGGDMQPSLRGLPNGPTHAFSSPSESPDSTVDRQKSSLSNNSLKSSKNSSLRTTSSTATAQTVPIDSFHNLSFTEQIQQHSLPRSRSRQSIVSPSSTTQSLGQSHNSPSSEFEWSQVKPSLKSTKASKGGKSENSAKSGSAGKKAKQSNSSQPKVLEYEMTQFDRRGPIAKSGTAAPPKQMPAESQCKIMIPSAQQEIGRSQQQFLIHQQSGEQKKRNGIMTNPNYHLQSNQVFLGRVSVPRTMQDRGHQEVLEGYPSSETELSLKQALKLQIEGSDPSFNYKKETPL
UniProt P54886: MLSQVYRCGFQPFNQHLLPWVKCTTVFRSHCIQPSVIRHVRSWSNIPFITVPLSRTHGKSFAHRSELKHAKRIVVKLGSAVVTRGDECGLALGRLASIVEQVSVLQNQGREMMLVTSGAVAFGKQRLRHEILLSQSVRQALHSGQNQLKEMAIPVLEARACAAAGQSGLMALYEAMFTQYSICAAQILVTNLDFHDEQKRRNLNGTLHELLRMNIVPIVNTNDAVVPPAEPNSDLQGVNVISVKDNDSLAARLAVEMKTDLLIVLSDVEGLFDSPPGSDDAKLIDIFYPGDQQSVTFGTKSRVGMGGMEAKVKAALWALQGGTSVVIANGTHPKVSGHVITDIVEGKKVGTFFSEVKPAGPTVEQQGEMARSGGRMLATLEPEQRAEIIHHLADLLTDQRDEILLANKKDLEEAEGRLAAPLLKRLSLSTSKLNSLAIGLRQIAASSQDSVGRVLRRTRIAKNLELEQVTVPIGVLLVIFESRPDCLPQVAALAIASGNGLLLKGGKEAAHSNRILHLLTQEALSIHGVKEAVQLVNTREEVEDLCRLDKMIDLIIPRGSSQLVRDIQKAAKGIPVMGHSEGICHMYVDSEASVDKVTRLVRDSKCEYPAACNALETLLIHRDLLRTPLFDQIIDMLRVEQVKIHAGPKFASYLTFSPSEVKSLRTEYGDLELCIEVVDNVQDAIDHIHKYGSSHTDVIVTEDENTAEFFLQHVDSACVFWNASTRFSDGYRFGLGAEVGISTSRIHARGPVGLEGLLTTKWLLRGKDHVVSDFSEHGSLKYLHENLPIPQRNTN
UniProt Q9BS18, whole entry, looked up: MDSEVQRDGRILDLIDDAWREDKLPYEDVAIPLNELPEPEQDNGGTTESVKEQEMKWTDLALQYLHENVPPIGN
UniProt P49189: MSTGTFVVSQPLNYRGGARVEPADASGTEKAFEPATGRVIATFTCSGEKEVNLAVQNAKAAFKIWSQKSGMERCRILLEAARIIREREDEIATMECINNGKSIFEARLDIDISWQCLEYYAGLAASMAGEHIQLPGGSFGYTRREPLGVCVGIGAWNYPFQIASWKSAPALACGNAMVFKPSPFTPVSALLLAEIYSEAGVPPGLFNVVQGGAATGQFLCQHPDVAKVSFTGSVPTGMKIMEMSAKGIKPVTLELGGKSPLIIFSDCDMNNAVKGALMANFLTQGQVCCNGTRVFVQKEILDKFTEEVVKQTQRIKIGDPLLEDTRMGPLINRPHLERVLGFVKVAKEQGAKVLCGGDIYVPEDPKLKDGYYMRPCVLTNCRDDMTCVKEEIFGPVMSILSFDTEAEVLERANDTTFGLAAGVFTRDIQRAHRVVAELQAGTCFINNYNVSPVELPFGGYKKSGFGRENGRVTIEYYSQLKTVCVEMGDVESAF
UniProt Q86SJ2: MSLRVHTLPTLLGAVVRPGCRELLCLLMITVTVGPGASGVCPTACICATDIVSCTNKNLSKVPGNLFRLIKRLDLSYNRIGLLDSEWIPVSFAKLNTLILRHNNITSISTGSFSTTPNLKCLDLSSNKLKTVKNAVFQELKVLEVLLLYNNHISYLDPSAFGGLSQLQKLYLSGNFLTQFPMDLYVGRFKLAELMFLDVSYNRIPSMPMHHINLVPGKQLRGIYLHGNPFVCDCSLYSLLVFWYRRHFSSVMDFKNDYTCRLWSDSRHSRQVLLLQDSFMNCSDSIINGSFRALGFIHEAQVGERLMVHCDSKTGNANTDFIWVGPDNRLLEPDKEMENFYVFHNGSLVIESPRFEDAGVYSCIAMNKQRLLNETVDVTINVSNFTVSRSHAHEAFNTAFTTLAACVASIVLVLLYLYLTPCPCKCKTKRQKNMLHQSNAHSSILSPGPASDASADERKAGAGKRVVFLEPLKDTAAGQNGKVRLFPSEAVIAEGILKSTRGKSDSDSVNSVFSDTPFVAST
UniProt Q9BTT0: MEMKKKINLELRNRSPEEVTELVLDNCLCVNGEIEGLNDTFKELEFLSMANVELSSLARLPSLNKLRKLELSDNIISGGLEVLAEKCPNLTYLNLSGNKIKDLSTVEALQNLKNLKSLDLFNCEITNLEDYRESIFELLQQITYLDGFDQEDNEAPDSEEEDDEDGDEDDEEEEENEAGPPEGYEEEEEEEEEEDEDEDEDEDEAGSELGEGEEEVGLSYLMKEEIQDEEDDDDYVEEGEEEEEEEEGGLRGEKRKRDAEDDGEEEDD
UniProt Q9Y303: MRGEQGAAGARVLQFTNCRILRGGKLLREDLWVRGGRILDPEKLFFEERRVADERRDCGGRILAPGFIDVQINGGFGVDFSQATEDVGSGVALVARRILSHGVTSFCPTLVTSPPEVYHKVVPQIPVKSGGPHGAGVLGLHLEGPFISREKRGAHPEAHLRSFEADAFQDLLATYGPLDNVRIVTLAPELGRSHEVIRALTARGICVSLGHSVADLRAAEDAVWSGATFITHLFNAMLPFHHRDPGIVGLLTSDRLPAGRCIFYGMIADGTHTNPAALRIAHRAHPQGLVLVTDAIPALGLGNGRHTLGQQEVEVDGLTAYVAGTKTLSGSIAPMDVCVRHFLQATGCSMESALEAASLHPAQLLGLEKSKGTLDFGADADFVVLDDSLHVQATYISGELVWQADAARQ
UniProt Q6ZW76: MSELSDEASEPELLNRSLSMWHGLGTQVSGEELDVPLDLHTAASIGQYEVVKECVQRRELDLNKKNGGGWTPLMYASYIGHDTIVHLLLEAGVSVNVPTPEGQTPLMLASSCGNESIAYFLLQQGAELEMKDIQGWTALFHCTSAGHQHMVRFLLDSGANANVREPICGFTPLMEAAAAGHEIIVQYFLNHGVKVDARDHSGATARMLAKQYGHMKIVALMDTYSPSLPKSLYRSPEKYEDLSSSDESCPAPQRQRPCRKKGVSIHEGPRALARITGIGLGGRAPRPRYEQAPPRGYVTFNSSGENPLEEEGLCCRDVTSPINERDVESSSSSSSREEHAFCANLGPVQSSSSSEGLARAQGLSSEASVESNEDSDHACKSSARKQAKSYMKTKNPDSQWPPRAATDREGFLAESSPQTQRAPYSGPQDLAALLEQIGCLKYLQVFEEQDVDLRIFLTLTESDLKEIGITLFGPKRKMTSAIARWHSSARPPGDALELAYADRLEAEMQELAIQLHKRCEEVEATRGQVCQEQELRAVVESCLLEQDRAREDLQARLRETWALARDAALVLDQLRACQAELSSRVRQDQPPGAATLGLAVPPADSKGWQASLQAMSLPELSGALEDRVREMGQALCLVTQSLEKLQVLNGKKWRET
UniProt Q9NYG5, whole entry, looked up: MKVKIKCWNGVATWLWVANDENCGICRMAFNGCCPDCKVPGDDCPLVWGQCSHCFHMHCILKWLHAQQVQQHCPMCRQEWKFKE

Target	log2 fold change
ANKHD1 (UniProt D6RHC4)	inactive: -0.037
ALKBH7 (UniProt Q9BT30)	inactive: -0.169
ANAPC15 isoform 2 (UniProt P60006)	inactive: -0.003
ALDH3A1 (UniProt P30838)	inactive: 0.147
ANXA6 (UniProt E5RK69)	inactive: 0.066
ANKS6 isoform 4 (UniProt Q68DC2)	inactive: 0.119
AKTIP isoform 2 (UniProt Q9H8T0)	inactive: 0.005
ANKRD50 (UniProt Q9ULJ7)	inactive: -0.048

Each target was assayed with C/C(=N\NC(=O)C1=CC(=CC=C1)S(=O)(=O)N2CCOCC2)/C3=C(C=CC(=C3)Cl)O in the same assay as above.
Procedure, shortened: as §1

Target	log2 fold change
ALDH18A1 isoform 2 (UniProt P54886)	inactive: -0.298
ANAPC13 (UniProt Q9BS18)	inactive: 0.132
ALDH9A1 (UniProt P49189)	inactive: -0.08
AMIGO2 (UniProt Q86SJ2)	inactive: 0.071
ANP32E isoform 3 (UniProt Q9BTT0)	inactive: -0.079
AMDHD2 (UniProt Q9Y303)	active: -0.527
ANKS3 (UniProt Q6ZW76)	inactive: 0.333

Each target was assayed with C1=CC(=CC=C1C2=NC3=C(N2)C=C(C=C3)C(=O)N)OC4=CC=C(C=C4)Cl in the same assay as above.
Procedure, shortened: as §1

Target	log2 fold change
ANKHD1 (UniProt D6RHC4)	inactive: 0.211
ALKBH7 (UniProt Q9BT30)	inactive: -0.02
ANAPC15 isoform 2 (UniProt P60006)	inactive: 0.154
ALDH3A1 (UniProt P30838)	inactive: 0.257
ANXA6 (UniProt E5RK69)	inactive: 0.096
ANKS6 isoform 4 (UniProt Q68DC2)	inactive: 0.106
AKTIP isoform 2 (UniProt Q9H8T0)	inactive: 0.12
ANKRD50 (UniProt Q9ULJ7)	inactive: 0.169

What follows are targets tested with C1=CC2=C(C=CC(=C2)/C=C\3/C(=O)NC(=NCC4=CC=CS4)S3)N=C1 in the same assay as above.
Procedure, shortened: as §1

Target	log2 fold change
ALDH18A1 isoform 2 (UniProt P54886)	inactive: -0.142
ANAPC13 (UniProt Q9BS18)	inactive: -0.009
ALDH9A1 (UniProt P49189)	inactive: -0.093
AMIGO2 (UniProt Q86SJ2)	inactive: 0.091
ANP32E isoform 3 (UniProt Q9BTT0)	inactive: -0.002
AMDHD2 (UniProt Q9Y303)	inactive: 0.212
ANKS3 (UniProt Q6ZW76)	inactive: -0.005

What follows are targets tested with C1=CC2=NC=CN=C2C=C1/C=C/3\C(=O)NC(=O)S3 in the same assay as above.
Procedure, shortened: as §1

Target	log2 fold change
ANK2 (UniProt Q01484)	inactive: -0.044
ANKRD13C (UniProt Q8N6S4)	inactive: 0.006
ALDH9A1 (UniProt P49189)	inactive: 0.005
ANP32E isoform 3 (UniProt Q9BTT0)	inactive: -0.011
AP1B1 isoform 3 (UniProt Q10567)	inactive: -0.095
ANKRD16 (UniProt Q6P6B7)	inactive: -0.018
ANKS3 (UniProt Q6ZW76)	inactive: 0.111
ANKRD30A (UniProt Q9BXX3)	inactive: 0.035
AP2S1 (UniProt M0QZ21)	inactive: -0.027
ANKRD31 (UniProt Q8N7Z5)	inactive: -0.111
ANAPC11 (UniProt Q9NYG5)	inactive: 0.031
ALAS1 (UniProt P13196)	inactive: 0.093

These targets were tested with C1=CC=C(C=C1)C2=NC(=C(N2)C3=CC=NC=C3)C4=CC(=C(C=C4)Cl)O in the same assay as above.
Procedure, shortened: as §1

Target	log2 fold change
ANKHD1 (UniProt D6RHC4)	inactive: -0.032
ANK2 (UniProt Q01484)	inactive: -0.077
ALKBH7 (UniProt Q9BT30)	inactive: 0
ALDH18A1 isoform 2 (UniProt P54886)	inactive: 0.092
ANKRD13C (UniProt Q8N6S4)	inactive: 0.12
AP2M1 (UniProt C9JTK4)	inactive: -0.038
ANGEL1 (UniProt Q9UNK9)	inactive: -0.131
ALDH9A1 (UniProt P49189)	inactive: -0.004
ALDH3A1 (UniProt P30838)	inactive: 0.147
ANKIB1 (UniProt Q9P2G1)	inactive: -0.037
AP1B1 isoform 3 (UniProt Q10567)	inactive: -0.247
ANKRD12 (UniProt Q6UB98)	inactive: 0.065
ANKRD30A (UniProt Q9BXX3)	inactive: -0.06
ANKS6 isoform 4 (UniProt Q68DC2)	inactive: -0.117
ANAPC11 (UniProt Q9NYG5)	inactive: -0.014
ANO9 (UniProt A1A5B4)	inactive: 0.449
AMOT (UniProt Q4VCS5)	inactive: 0.009
AKTIP isoform 2 (UniProt Q9H8T0)	inactive: -0.024
ALAS1 (UniProt P13196)	inactive: 0.029
ALDH3A2 isoform 2 (UniProt P51648)	inactive: 0.001
ANKRD50 (UniProt Q9ULJ7)	inactive: -0.046

Each target was assayed with C1=CC=C2C(=C1)C3=NNC4=CC=CC(=C43)C2=O in the same assay as above.
Procedure, shortened: as §1

Target	log2 fold change
ALDH18A1 isoform 2 (UniProt P54886)	inactive: -0.05
ANAPC13 (UniProt Q9BS18)	inactive: -0.241
ALDH9A1 (UniProt P49189)	inactive: -0.046
AMIGO2 (UniProt Q86SJ2)	inactive: -0.012
ANP32E isoform 3 (UniProt Q9BTT0)	inactive: 0.012
AMDHD2 (UniProt Q9Y303)	inactive: -0.391
ANKS3 (UniProt Q6ZW76)	inactive: -0.065
